Measured values: patent US20160264628 (published 2016)

Assay: general procedure: peptide synthesis; BOP-Cl; isobutyl chloroformate; pivalic acid chloride; oxalyl chloride (activati)
Settings: lipidation step

Micafungin
step yield (NEt3 salt, run 1): 76% | step yield (NEt3 salt, run 2): 54% | step yield (Na salt): =66%
